The exact form of at least one protein or probe is not confirmed. Where cells or extracts were used, other partners may take part. Tags and fusion partners may be left off the protein sequences shown.
Target: T1, ZGPAT (UniProt Q8N5A5)
T1 sequence (looked up, limits assumed): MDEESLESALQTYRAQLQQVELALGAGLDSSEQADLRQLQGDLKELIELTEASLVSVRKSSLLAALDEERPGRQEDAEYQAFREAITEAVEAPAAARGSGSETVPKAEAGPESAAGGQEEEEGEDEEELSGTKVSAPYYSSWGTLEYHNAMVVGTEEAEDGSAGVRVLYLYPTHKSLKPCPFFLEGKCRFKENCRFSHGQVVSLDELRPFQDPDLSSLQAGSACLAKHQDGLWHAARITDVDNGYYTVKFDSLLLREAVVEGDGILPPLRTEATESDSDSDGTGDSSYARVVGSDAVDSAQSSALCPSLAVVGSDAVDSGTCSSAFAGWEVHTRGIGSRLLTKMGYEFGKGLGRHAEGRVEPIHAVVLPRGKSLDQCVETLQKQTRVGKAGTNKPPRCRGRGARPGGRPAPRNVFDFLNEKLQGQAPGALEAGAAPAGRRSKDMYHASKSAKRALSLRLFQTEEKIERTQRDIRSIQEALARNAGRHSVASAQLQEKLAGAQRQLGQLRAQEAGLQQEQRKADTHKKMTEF
Assay: EMSA supershift
Settings: HEK293T nuclear extract, anti-ZGPAT; EMSA with HEK293T nuclear extract, biotin probe, chemiluminescent detection; RNA pull-down with HEK293T lysate; protein in an extract

TCGCGGTGGTGGTAATGTGAGTGAGTTTGTC (double strand) [CNTNAP3 hot/cold EMSA probe (ZGPAT motif)]
binding result: binds

Reference: article PMC12667460
